The source of these data is article PMC8882908, “Tricyclic Antidepressant Structure-Related Alterations in Calcium-Dependent Inhibition and Open-Channel Block of NMDA Receptors” (Frontiers in Pharmacology, 2022).

The structures appear in SMILES notation. “And” between values parts separate entries of the source, which are not always exact repeats. Equal entries are not always repeated. Where two headings read alike, the source gives them in different places.

Assay [1] has as its target N-methyl-D-aspartate receptors (NMDARs). The following applies: read-out: model-predicted IC50; [Ca2+] = 2.5 mM, Vm = −70 mV.
In assay [2] the test system is N-methyl-D-aspartate receptors (NMDARs).

As to `CN(C)CCCN1c2ccccc2CCc2ccc(Cl)cc21` [CLO, clomipramine], the IC50 in assay [1] was 14 µM; in assay [2] (read-out: IC50(0 mV), value of IC50 at Vm = 0 mV from fit with Eq. 6 (Woodhull)) it was 90 µM and 91 µM; in assay [2] (read-out: IC50 of the inhibition of NMDAR currents, Vm = −30 mV, [Ca2+] = 0), 47.3 ± 5.6 µM; in assay [2] (read-out: IC50 of the inhibition of NMDAR currents, Vm = −30 mV, [Ca2+] = 1 mM), 44.2 ± 7.1 µM; in assay [2] (read-out: IC50 of the inhibition of NMDAR currents, Vm = −70 mV, [Ca2+] = 0), 23.8 ± 4.4 µM; in assay [2] (read-out: IC50 of the inhibition of NMDAR currents, Vm = −70 mV, [Ca2+] = 1 mM) it was 20 µM and 20.6 µM. The IC50 in assay [2] (read-out: IC50 of the inhibition of NMDAR currents, Vm = −70 mV, [Ca2+] = 4 mM) was 7.1 ± 1.4 µM; in assay [2] (read-out: IC50 of the inhibition of NMDAR currents, Vm = −100 mV, [Ca2+] = 0), 9.88 ± 1.22 µM; in assay [2] (read-out: IC50 of the inhibition of NMDAR currents, Vm = −100 mV, [Ca2+] = 1 mM), 11.8 ± 2.4 µM. Besides, the “open-channel block potency relative to ATL” value in assay [2] (based on IC50 (0 mV)) is “about 5 folds”. Moreover, the “e-fold change Vm (Vm shift giving an e-fold change of IC50)” value in assay [2] (fit with Eq. 6) is 50 ± 5.5 mV. For the same compound, the “e-fold change [Ca2+] ([Ca2+] shift giving an e-fold change of IC50)” value in assay [2] (fit with Eq. 6, Vm = −70 mV) is 5500 ± 1800 µM and 5500 µM.

For orientation: IC50 means the concentration needed to halve the response being measured.
